Test results from patent US5789531A, “Peptide-based inhibitors of HIV replication” (Allex Biopharmaceuticals, Inc., priority 1995, dated 1998).
Read-outs that look alike come from different tables or passages of the source. Not every detail of the peptide structures is certain; ends, links or a residue may be inferred.

Assays:
[1] = system: HIV (strain NL4-3); format: cell-based; settings: for PH Titers: HuT78 cells, 5 uM pretreatment, 10 uM after infection
Description: Controls used water in place of peptide.

[2] = system: truncated functional form of TAR RNA (SEQ ID NO:13); assay: RNA gel mobility shift TAR-binding assay; design: species or system HIV; settings: relative to tat (1-86) and the oligopeptide representing the tat basic domain
Description: This assay generally involves the incubation of a selected oligopeptide with gel-purified, radio-labelled TAR RNA, or tat-binding fragment of TAR RNA, that has been produced either by direct synthesis or through transcription of a corresponding DNA template. Samples are loaded onto non-denaturing polyacrylamide gel and subjected to electrophoresis, and then migration of labelled RNA through the gel is visualized on gel-exposed, X-ray film. Oligopeptides which bind TAR are identified in this assay by their characteristic, retarded migration on the gel, relative to TAR RNA to which no oligopeptide has bound. In this mobility shift assay, oligopeptides having an "enhanced" affinity for binding TAR RNA will resolve on the gel as bands which, in addition to displaying the retarded migration pattern characteristic of TAR-binding oligopeptides, will also appear with greater intensity and/or size than a band containing TAR RNA bound to tat (1-86).
(§1) TAR-binding affinity of the oligopeptides relative to HIV tat(1-86) and relative to tat fragments representing the tat basic domain, was evaluated by RNA gel mobility shift assay using as ligand a truncated functional form of TAR RNA having the sequence (SEQ ID NO:13) shown below.
Synthesis of the TAR fragment and its variant analogue was accomplished as described by Roy et al. in Genes and Development, 1990, 4:1365. […]

[3] = system: variant of TAR (SEQ ID NO:14) which does not bind tat; assay: RNA gel mobility shift assay with non-functional TAR variant (specificity); format: binding, HIV; settings: functional TAR fragment vs non-functional TAR variant
Description: as §1
Synthesis of the TAR fragment and its variant analogue was accomplished as described by Roy et al. in Genes and Development, 1990, 4:1365. The TAR-binding assay was also performed in the manner reported by Roy et al, supra, which is incorporated herein by reference.

SMILES | HIV inhibition / resistance to viral infection ([1]; 5 uM concentration) | PH Titers ([1]; 7 Day Pretreatment, Day 4 after infection, listed as 4A1) [pg/mL] | PH Titers ([1]; 7 Day Pretreatment, Day 4 after infection, listed as 4A2) [pg/mL] | PH Titers ([1]; 7 Day Pretreatment, Day 7 after infection, listed as 4A1) [pg/mL] | PH Titers ([1]; 7 Day Pretreatment, Day 7 after infection, listed as 4A2) [pg/mL] | PH Titers ([1]; 14 Day Pretreatment, Day 4 after infection, listed as 4A1) [pg/mL] | PH Titers ([1]; 14 Day Pretreatment, Day 4 after infection, listed as 4A2) [pg/mL] | PH Titers ([1]; 14 Day Pretreatment, Day 7 after infection, listed as 4A1) [pg/mL] | PH Titers ([1]; 14 Day Pretreatment, Day 7 after infection, listed as 4A2) [pg/mL] | TAR-binding affinity [2] | specificity for binding to the functional TAR fragment relative to the TAR variant [3]
N=C(N)NCCC[C@@H](N)C(=O)N[C@H](CCCCN)C(=O)N[C@H](CCCCN)C(=O)N[C@H](CCCNC(=N)N)C(=O)N[C@H](CCCNC(=N)N)C(=O)N[C@H](CCC(N)=O)C(=O)N[C@H](CCCNC(=N)N)C(=O)N[C@H](CCCNC(=N)N)C(=O)N[C@H](CCCNC(=N)N)C(=O)O [4A, D-[Arg--Lys--Lys--Arg--Arg--Gln--Arg--Arg--Arg]] | positive effects on HIV inhibition | 266.3 | 277.7 | 376.4 | 376.5 | 484.8 | 459.9 | 3049 | 2662 | binding of the oligopeptide to the RNA | 
N=C(N)NCCC[C@H](NC(=O)[C@H](CCCNC(=N)N)NC(=O)[C@H](CCCNC(=N)N)NC(=O)[C@H](CCCNC(=N)N)NC(=O)[C@H](CCCNC(=N)N)NC(=O)[C@H](CCCNC(=N)N)NC(=O)[C@H](CCCNC(=N)N)NC(=O)[C@H](CCCNC(=N)N)NC(=O)[C@@H](N)CCCNC(=N)N)C(=O)O [arginine homopolymer, L-(Arg--Arg--Arg--Arg--Arg--Arg--Arg--Arg--Arg)] |  |  |  |  |  |  |  |  |  | bound with greater affinity to TAR RNA than either tat (1-86), the oligopeptide representing the basic domain thereof, or any one of the oligopeptide analogues described in examples 1 and 2 | bound selectively to the functional TAR fragment
